We go through 62 compounds from PubChem BioAssay AID2685 (National Center for Advancing Translational Sciences (NCATS), 2010).

The list shows a part of the results. These are further read-outs of the screen, such as a control signal, another cell line or another target. No call is given for them. The list favours compounds with an active or inconclusive main result. The note in brackets gives the kind of curve behind each potency; many fits are weak.

The assay can be described thus: qHTS Assay for Lipid Storage Modulators in Drosophila S3 Cells.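 As to cell number change: cells counted by Cell Tracker Red CMTPX staining in the red channel.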 To be noted: BODIPY lipid droplet fluorescence, 18-24 h; for cell number change: measured here: cell count max response, cells fed with added oleic acid. The gist of the method: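 Drosophila S3 cells got compounds at several concentrations plus oleic acid (400 uM solution). Laser-scanning cytometry with 488 nm excitation read lipid droplets at 500-530 nm and cells at 575-640 nm. Percent activity was relative to 20 uM Triacsin C.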
(Quantitative high-throughput screening tests each substance at several concentrations.)

Where [1] appears, read: measured here: cell number channel AC50, cells fed with added oleic acid.
Where [2] appears, read: measured here: lipid fluorescence (Fed channel) AC50, cells fed with added oleic acid.

In general, AC50 refers to the concentration giving half of the maximal activity seen. A lower AC50 goes with greater potency.

On to `COC(=O)c1ccccc1NC(=O)CN1CCOCC1`, for which the cell number change is -7.67%. Besides, the AC50 under setting [1] is 0.259 µM [falling, full curve]. Besides, the AC50 under setting [2] is 0.731 µM [falling, full curve]. Regarding `c1ccc(CCn2nnnc2CN2CCc3ccccc32)cc1`, the cell number change was -14.2%. Under setting [2], the concentration at half-maximal activity (AC50) was 6.51 µM [rising, single point]. For `CC(C)Sc1nc(N)c2c3c(sc2n1)CN(C)CC3`, the cell number change is 2.19%. Turning to `S=c1[nH]nc(C2CCCCC2)n1/N=C/c1ccco1`, the cell number change stood at 6.97%. For the same compound, under setting [2], the concentration at half-maximal activity (AC50) was 23.1 µM [rising, single point]. As to `CCN1CCN(C(=S)c2ccc(OCC(=O)N3CCOCC3)cc2)CC1`, the cell number change is 1.78%. Moreover, the AC50 under setting [2] was 4.61 µM [falling, full curve, poor fit]. On to `COc1ccc(N2CCN(S(=O)(=O)CCNC(=O)C3CC3)CC2)cc1`, for which the cell number change was -67.3%. Moreover, the AC50 under setting [1] is 29.1 µM [falling, single point]. With `Cc1ccccc1NC(=S)N1CCCCCC1`, the cell number change was found to be 6.65%.

`Cc1nn(C)cc1CNC(=O)Nc1ccc(Cl)c(Cl)c1`: the half-maximal activity concentration (AC50) was 2.31 µM [rising, partial curve] under setting [1] and 2.91 µM [rising, partial curve] under setting [2]. With `COc1ccccc1CNc1ccc2nnc(CCNC(=O)c3ccc(C)cc3)n2n1`, the cell number change was -5.07%. In addition, the AC50 under setting [2] is 0.0461 µM [rising, single point]. On to `Cc1cccc(OCC(=O)NC(Cc2ccccc2)C(=O)O)c1` (stereo not drawn), for which the cell number change was -5.93%. Also, under setting [1], the AC50 is 6.51 µM [rising, single point]. The half-maximal activity concentration (AC50) under setting [2] was 6.51 µM [rising, single point].

Turning to `Cc1ccsc1/C=N/n1c(-c2ccncc2)n[nH]c1=S`, under setting [1], the AC50 is 0.651 µM [rising, full curve].

With `COCCNC(=O)c1c[nH]c2ccc(S(=O)(=O)N3CCC4(CC3)OCCO4)cc2c1=O`, the concentration at half-maximal activity (AC50) under setting [1] was 0.82 µM [rising, full curve, poor fit]. `CCn1cnnc1SCC(=O)NCC1COc2ccccc2O1` (stereo not drawn): the cell number change was -12.6%. Also, the AC50 under setting [2] is 1.46 µM [falling, full curve].

Consider `CCOC(=O)N1CCN(c2ccnc3cc(Cl)ccc23)CC1`, for which the cell number change was 30.3%. Further, the AC50 under setting [1] was 20.6 µM [rising, partial curve, poor fit]. In the case of `CCOC(=O)C1CCN(C(=O)c2ccc(OCC(=O)Nc3cccc(C(F)(F)F)c3)cc2)CC1`, the cell number change is -28.7%. Under setting [2], the AC50 is 20.6 µM [falling, single point]. In the case of `c1ccc(C[C@H]2CNCCN2CCCCC2CCCCC2)cc1`, the cell number change was -24.3%. Further, the AC50 under setting [1] is 0.731 µM [falling, full curve, poor fit]. Further, the AC50 under setting [2] is 1.03 µM [falling, partial curve]. Turning to `O=C1CN(c2ccccc2Cl)C(=O)CN1c1ccccc1Cl`, the cell number change was found to be 2.8%. `COc1ccc(/C=C2\SC(=S)N(CCC(=O)NC3=NCCS3)C2=O)cc1OC`: the cell number change is -5.62%. Also, the AC50 under setting [2] is 3.66 µM [rising, full curve]. Regarding `CCOc1ccc(Nc2cc(=O)n(C)c(=O)n2C)cc1`, the cell number change was found to be 16.8%. Also, the half-maximal activity concentration (AC50) under setting [2] is 6.51 µM [rising, single point]. Regarding `CC(OC(=O)/C=C/c1ccccc1)C(=O)NC1CCCCC1C` (stereo not drawn), the cell number change was -0.141%. The AC50 under setting [2] was 29.1 µM [falling, single point]. Consider `COC(=O)C1CCN(C2=C(NS(=O)(=O)c3ccc(Cl)cc3)C(=O)c3ccccc3C2=O)CC1`, for which the cell number change is -58.8%. Under setting [1], the AC50 was 29.1 µM [falling, single point]. In addition, the AC50 under setting [2] is 18.4 µM [falling, partial curve]. Take `Cc1ccc(S(=O)(=O)N2CCN(C(=O)CCC(=O)OCC(=O)Nc3cccc(C#N)c3)CC2)cc1`: the cell number change stood at 43%. Moreover, under setting [1], the AC50 is 16.4 µM [rising, single point]. Further, under setting [2], the AC50 is 29.1 µM [rising, single point].

As to `CC(C)OCCCNC(=S)Nc1ccc2nc3n(c(=O)c2c1)CCCCC3`, the half-maximal activity concentration (AC50) under setting [1] is 6.51 µM [rising, single point] and the AC50 under setting [2] is 2.06 µM [rising, partial curve]. `Cc1ccc(S(=O)(=O)NC(CC(C)C)C(=O)NCCCn2nc(C)cc2C)cc1` (stereo not drawn): the cell number change was -4.15%. For the same compound, the AC50 under setting [2] is 0.231 µM [rising, full curve].

For `Oc1cccc(/C=N/Nc2cc(N3CCCC3)nc(N3CCCC3)n2)c1`, the cell number change came out at 6.31%. For the same compound, under setting [2], the concentration at half-maximal activity (AC50) was 8.2 µM [falling, partial curve, poor fit]. Regarding `CC(=O)C(C)n1cnc2scc(-c3ccc(C)cc3)c2c1=O` (stereo not drawn), the cell number change is -6.87%. Moreover, the AC50 under setting [2] is 29.1 µM [falling, single point]. Take `O=c1[nH]c(/C=C/c2ccc([N+](=O)[O-])cc2)c([N+](=O)[O-])c(=O)[nH]1`: the cell number change worked out at 13%. Besides, the AC50 under setting [2] is 10.3 µM [rising, partial curve]. Regarding `CCOc1ccc(N(Cc2cc3ccc(C)cc3[nH]c2=O)S(C)(=O)=O)cc1`, the cell number change turned out to be 0.62%. Moreover, the AC50 under setting [1] is 1.64 µM [rising, partial curve]. With `CN(C)C(CNC(=O)Nc1cccc(Cl)c1)c1cccnc1` (stereo not drawn), the AC50 under setting [2] was 0.651 µM [rising, single point]. As for `Cc1cc(SCc2ccc(Cl)c(Cl)c2)nc(=O)[nH]1`, the cell number change came out at 29.7%. Moreover, the AC50 under setting [2] is 6.51 µM [falling, single point].

As for `Cc1cc(SCC(=O)NC2CCCCC2)nc2ccccc12`, the cell number change was -2.25%. Under setting [2], the AC50 was 0.58 µM [rising, single point]. Consider `O=C(CNCc1cccs1)Nc1ccc(OC(F)(F)F)cc1`, for which the cell number change was -44.8%. Besides, the AC50 under setting [1] is 18.4 µM [falling, single point]. Further, the AC50 under setting [2] was 29.1 µM [falling, single point]. `CCCc1c2ccccc2nc2ccccc12`: the cell number change is -0.485%. Also, under setting [2], the AC50 is 6.51 µM [rising, single point]. Turning to `COc1ccc(S(=O)(=O)N2CCCCCC2)cc1C(=O)NC1(C)CCS(=O)(=O)C1` (stereo not drawn), the cell number change is 1.05%. Besides, the AC50 under setting [2] is 0.164 µM [rising, full curve, poor fit]. On to `Cc1cc(N2CCOCC2)nc(N)n1`, for which the cell number change came out at 7.13%. In addition, the AC50 under setting [2] is 0.116 µM [falling, full curve, poor fit].

As for `CNc1snc(C)c1C(=O)OCC(=O)c1ccc(OC)c(F)c1`, the cell number change is -2.15%. Under setting [2], the AC50 is 29.1 µM [falling, partial curve, poor fit]. In the case of `COc1cccc(NC(=O)C(C#N)Cc2ccncc2)c1` (stereo not drawn), the cell number change is -4.14%. Also, the AC50 under setting [2] was 0.92 µM [falling, full curve, poor fit]. Turning to `O=C(C[n+]1ccsc1)c1ccccc1`, the cell number change is -8.61%. In addition, the AC50 under setting [1] was 0.00461 µM [falling, full curve, poor fit]. Besides, under setting [2], the AC50 is 0.651 µM [falling, full curve, poor fit].

`Clc1ccc(SCCCCN2CCOCC2)cc1`: the cell number change was -31.6%. Moreover, the AC50 under setting [1] is 0.164 µM [falling, full curve, poor fit]. Consider `Cc1cc(C)n(C(=O)CNC(=O)c2cccs2)n1`, for which the cell number change worked out at 1.73%. Moreover, the half-maximal activity concentration (AC50) under setting [2] was 3.66 µM [falling, single point]. As for `CCOc1ccc(C(=O)OCC(=O)c2c(N)n(C)c(=O)n(C)c2=O)cc1OCC`, the AC50 under setting [1] is 3.66 µM [rising, single point] and the AC50 under setting [2] is 6.51 µM [rising, partial curve, poor fit].

On to `CCN(CC)S(=O)(=O)c1cc(C(=O)Nc2nncs2)c(Cl)cc1Cl`, for which the cell number change turned out to be 9.64%.

`COc1ccc(/C=N\NC(=O)C2COc3ccccc3O2)cc1O` (stereo not drawn): the cell number change worked out at 0.819%. Also, under setting [2], the AC50 was 2.91 µM [rising, full curve, poor fit]. As to `CN(C)c1ccc(C(=S)NCc2ccco2)cc1`, the concentration at half-maximal activity (AC50) under setting [2] is 0.411 µM [rising, partial curve, poor fit].

`CC(=O)N1CCc2ccc(S(=O)(=O)N3CC(C)OC(C)C3)cc21` (stereo not drawn): the cell number change is -30.3%. In addition, the half-maximal activity concentration (AC50) under setting [1] was 2.91 µM [rising, single point]. Consider `CC(C)CNC(=O)CSc1nc(-c2cccs2)cc(C(F)(F)F)n1`, for which the cell number change was -21.6%. For `COc1ccc(/C=C/C(=O)NCCOc2ccccc2OC)cc1`, under setting [2], the half-maximal activity concentration (AC50) was 2.06 µM [rising, single point]. For `CC1(C)Cc2c(sc(NC(=O)c3ccc(Br)o3)c2C#N)CO1`, the cell number change amounted to 15.2%. Under setting [2], the concentration at half-maximal activity (AC50) is 10.3 µM [rising, partial curve, poor fit]. In the case of `Cc1cccc(C)c1NC(=O)CNC(=O)c1ccccc1`, the cell number change is -6.67%. Consider `CC(=O)Nc1ccc(NC(=S)NC(=O)c2oc3ccccc3c2C)cc1`, for which the cell number change was -18.3%. Consider `CCC(OC(=O)c1ccco1)C(=O)NCc1ccc(C)cc1` (stereo not drawn), for which the cell number change is -3.84%. Also, the AC50 under setting [2] was 16.4 µM [rising, single point]. On to `Cc1ccc(CN=Cc2[nH]c3ccc(Br)c(Cl)c3c2O)cc1`, for which the cell number change amounted to 41.6%. Besides, the half-maximal activity concentration (AC50) under setting [2] was 29.1 µM [rising, single point]. On to `CC(Sc1nnc(C2CC2)n1C1CC1)C(=O)N(C)Cc1cccc(F)c1` (stereo not drawn), for which the cell number change was -16.4%. In addition, the AC50 under setting [2] is 6.51 µM [falling, single point]. Consider `Cc1cc(C)c(OC2(c3ccccc3)OC(=O)c3ccccc32)c(C)c1` (stereo not drawn), for which the cell number change was -12.9%. Besides, under setting [1], the AC50 was 0.116 µM [rising, full curve, poor fit]. Take `O=C(CCS(=O)(=O)Cc1ccccc1)NCc1ccco1`: the cell number change was -44.9%. Also, the AC50 under setting [1] was 3.66 µM [falling, full curve]. For the same compound, under setting [2], the AC50 was 3.66 µM [falling, full curve]. Regarding `Cn1cnnc1SCCOc1ccc(Cl)cc1`, the cell number change is 33.8%. The half-maximal activity concentration (AC50) under setting [1] was 0.103 µM [rising, full curve, poor fit]. Under setting [2], the AC50 was 18.4 µM [rising, single point].

In the case of `CCCCn1c(SCC(=O)Nc2ccc3c(c2)OCO3)nc2c1c(=O)n(C)c(=O)n2C`, the cell number change was -32%. In addition, the AC50 under setting [1] was 1.84 µM [falling, full curve, poor fit]. Besides, the AC50 under setting [2] was 16.4 µM [falling, partial curve].

On to `Cc1ccc(C(=O)N2CCN(S(=O)(=O)N3CCCCCC3)CC2)cc1`, for which the cell number change was found to be 21%. Same read-out and setting: the result for `O=C(NCc1ccccc1)c1cccc(F)c1F` reads 168%; that for `CC(C)c1ccc(N(C(=O)c2ccco2)C(C(=O)NC2CCCC2)c2cccnc2)cc1` (stereo not drawn), -9.52%.

Take `CC1CCN(c2[nH]c(=S)c(C#N)c3c2CCCC3)CC1`: the cell number change was -14%.

As for `COc1ccc(CNC(=O)CCS(=O)(=O)c2cc3c(cc2Cl)NC(=O)CO3)cc1`, the cell number change was -11.7%. Also, the AC50 under setting [2] was 4.11 µM [falling, single point].
